Structures can show the parent of a compound that is named as a salt. Some of the results follow. Hit calls seldom repeat between salt and free forms of one compound.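 Kinases were expressed as nanoluciferase fusions in K562 cells and luminescence was read every 4 h between 2 and 18 h as percent of control, DMSO set to 100% and a positive control to 0%. A time point counts as decreased when the signal drops significantly (2 sigma). The hit call is the authors' own, does not follow from the count of time points alone, and its rule is not shown.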
target: CDK4 (UniProt P11802); assay: number of time points (of 4; 2 h point missing) at which kinase-Nluc abundance scored as decreased, DMSO-normalised (count); higher = more persistent destabilization; settings: K562; 2-18 h

Sequences of proteins named here, by UniProt entry; tags and fusion partners are left off. A change or cut given only in a name is not applied to a line headed by its entry.
UniProt P11802: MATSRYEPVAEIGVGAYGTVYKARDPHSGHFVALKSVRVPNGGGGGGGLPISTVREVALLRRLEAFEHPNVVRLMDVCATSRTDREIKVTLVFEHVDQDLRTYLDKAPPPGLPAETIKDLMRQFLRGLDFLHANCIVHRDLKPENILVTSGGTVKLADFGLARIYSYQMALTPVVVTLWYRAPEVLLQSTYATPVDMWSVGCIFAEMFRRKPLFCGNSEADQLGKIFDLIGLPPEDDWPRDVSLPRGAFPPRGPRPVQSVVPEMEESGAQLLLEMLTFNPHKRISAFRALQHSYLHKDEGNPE

Point of comparison: `COc1cc(N2CCOCC2)ccc1Nc1ncc(F)c(Nc2ccccc2NS(C)(=O)=O)n1` (10 µM), “number of time points” value 0. Against it:
- Cc1cc(C(=O)NC(C)(C)C)cc(C#Cc2ccc3c4c(oc3c2)C(C)(C)c2cc(NS(C)(=O)=O)ccc2C4=O)n1 (10 µM) — the same, 0
- COCCOc1ccc2c(c1)ncn2-c1ccc2cccc(N3CCC(N)CC3)c2n1 (10 µM) — the same, 0
- COc1ccc2c(Oc3ccc4c(C(=O)Nc5ccccc5N)cccc4c3)ccnc2c1 [Chiauranib] (10 µM) — the same, 0
- COc1cc2c(cc1OC)/C(=C/c1ccc(O)cc1)C(=O)N2 (10 µM) — the same, 0
- COc1cc2ncnc(Nc3ccc(O)c(Br)c3)c2cc1OC (10 µM) — the same, 0
- O=C(O)[C@H]1O[C@@H](Oc2cc3oc(-c4ccc(O)cc4)cc(=O)c3c(O)c2O)[C@H](O)[C@@H](O)[C@@H]1O [Scutellarin] (10 µM) — the same, 0
- NCCOc1ccc(Cl)cc1C(=O)Nc1ccc([N+](=O)[O-])cc1Cl [HJC0152 hydrochloride] (2 µM) — the same, 0
- CC(Sc1nc2c(cnn2-c2cccc(Cl)c2)c(=O)[nH]1)C(N)=O (stereo not drawn) (10 µM) — the same, 0
- N#C/C(=C\c1ccc(O)c(O)c1)C(=O)O [Tyrphostin AG30] (10 µM) — the same, 0
- CCC(=O)Nc1cccc(Oc2nc(Nc3ccc(N4CCN(C)CC4)cc3OC)ncc2Cl)c1 (10 µM) — the same, 0
- O=C1OC(/C=C/c2ccccc2)=NC/1=C\c1cccnc1 (10 µM) — the same, 0
- Cc1cccc(-c2[nH]ncc2-c2ccnc3ccccc23)n1 (10 µM) — the same, 0
- C=CC(=O)Nc1cc(Nc2nccc(-c3cn(C)c4ccccc34)n2)c(OC)cc1OCCN(C)C [Rezivertinib] (2.5 µM) — the same, 0
- Nc1nc(N)c2nc(-c3cccc(O)c3)c(-c3cccc(O)c3)nc2n1 (10 µM) — the same, 0
- CCN1CCN(Cc2cnc(Nc3cc(-c4cc(F)c5nc(C)n(C(C)C)c5c4)c(F)cn3)nc2)CC1 (10 µM) — the same, 0
- Nc1[nH]nc2nc(-c3ccc(NS(=O)(=O)c4cc(Cl)ccc4Cl)cc3)cnc12 (10 µM) — the same, 0
- C=CC(=O)Nc1cccc(Oc2nc(Nc3ccc(N4CCN(C)CC4)c(F)c3)nc3[nH]ccc23)c1 [Avitinib (maleate)] (2.5 µM) — the same, 0
- Nc1nc(NCCNc2ncc(-n3ccnc3)c(-c3ccc(Cl)cc3Cl)n2)ccc1[N+](=O)[O-] (2.5 µM) — the same, 0
- O=C1Nc2ccc(I)cc2/C1=C/c1cc(Br)c(O)c(Br)c1 (10 µM) — higher, 1
- C=C1C(=O)[C@@]23[C@H](O)C[C@@H]4C(C)(C)C(=O)CC[C@@]4(C)[C@@H]2CC[C@@H]1[C@H]3O [Glaucocalyxin A] (2.5 µM) — the same, 0
- C=C1CCC[C@]2(C)C=C3OC(=O)C(C)=C3C[C@@H]12 [Atractylenolide I] (10 µM) — the same, 0
- Cc1nn(C)cc1-c1nc2c(N3CCN(Cc4ccc(Cl)cc4)CC3)c(Cl)cnc2[nH]1 (10 µM) — the same, 0
- Brc1ccc(CSc2nc3ccccc3o2)cc1 [BMP signaling agonist sb4] (10 µM) — the same, 0
- CN1CCN(c2cc(-c3ccncc3)c(-c3ccc4ccccc4c3)nn2)CC1 (10 µM) — the same, 0
- COc1cc(-c2cc(OP(=O)(O)O)cc(-c3cc(OC)c(OC)c(OC)c3)c2)cc(OC)c1OC [Stafia-1] (10 µM) — the same, 0
- CC(C)(C)Cc1[nH]nc2c1[C@@](C)(c1ccccc1)C1=C(CC(C)(C)CC1=O)N2 (10 µM) — the same, 0
- Cc1c(C(=O)Nc2ccc(Oc3ccnc4[nH]cc(-c5ccccc5)c34)c(F)c2)c(=O)n(-c2ccc(F)cc2)n1C (10 µM) — the same, 0
- N#Cc1ccc(-c2cnc3[nH]cc(NC(=O)c4cccnc4)c3c2)cc1 (10 µM) — the same, 0
- Cc1ccc(C(=O)NC2CC2)cc1-n1ncc(C(=O)c2cccc(C#N)c2)c1N [Acumapimod] (10 µM) — the same, 0
- COc1cc(N2CCC(N3CCN(C)CC3)CC2)ccc1Nc1ncc(Cl)c(-c2c[nH]c3ccccc23)n1 (2.5 µM) — the same, 0
- Cc1cc(Nc2cc(N3CCN(C)CC3)nc(Nc3ccc([N+](=O)[O-])cc3)n2)n[nH]1 (2.5 µM) — the same, 0
- C=CC(=O)N1CCC[C@@H](n2nc(-c3ccc(Oc4ccccc4)cc3)c3c(N)n[nH]c(=O)c32)C1 [BTK inhibitor 17] (10 µM) — the same, 0
- O=Nc1c(-c2c(O)[nH]c3cc(Br)ccc23)[nH]c2ccccc12 [GSK 3 Inhibitor IX] (2.5 µM) — the same, 0
- C#Cc1cccc(Nc2ncnc3cc(OC)c(NC(=O)N4C[C@H]5CCN(C)[C@H]5C4)cc23)c1 [Theliatinib] (10 µM) — the same, 0
- Fc1ccc2[nH]ccc2c1-c1nc(N2CCOCC2)c2sc(CN3CCN(CC4CC4)CC3)cc2n1 (10 µM) — the same, 0
- COc1c(O)cc2oc(-c3ccc(O)cc3)cc(=O)c2c1O [Hispidulin] (10 µM) — the same, 0
- Cc1cc(CSc2ccccc2C(=O)NCCNc2ccc(C(F)(F)F)cc2[N+](=O)[O-])on1 (10 µM) — the same, 0

Reference: the supplement of paper PMC12823440, “Inhibitors supercharge kinase turnover through native proteolytic circuits” (Nature, 2025)
